Laboratory results: the supplement of paper PMC6411743
± gives the standard deviation of the averaged measurements. The list shows a part of the results.

The chains behind the UniProt entries cited, without tags or fusion partners. Where a name states a change or a piece, a line headed by the entry shows the natural chain unless it says otherwise.
UniProt P01848, whole entry, looked up: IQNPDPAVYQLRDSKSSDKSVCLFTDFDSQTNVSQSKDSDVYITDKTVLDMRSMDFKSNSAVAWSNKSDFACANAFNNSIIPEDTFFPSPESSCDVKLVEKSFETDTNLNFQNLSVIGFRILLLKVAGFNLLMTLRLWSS
UniProt Q8WWP7: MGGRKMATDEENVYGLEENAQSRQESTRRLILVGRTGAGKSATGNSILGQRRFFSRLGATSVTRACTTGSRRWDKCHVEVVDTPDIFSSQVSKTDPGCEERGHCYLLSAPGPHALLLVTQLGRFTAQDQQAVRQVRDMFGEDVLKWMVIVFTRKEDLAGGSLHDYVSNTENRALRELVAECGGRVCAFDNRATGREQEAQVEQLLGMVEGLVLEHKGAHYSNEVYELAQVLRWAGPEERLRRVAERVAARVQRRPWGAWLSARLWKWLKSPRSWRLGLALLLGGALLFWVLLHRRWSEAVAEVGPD
UniProt Q9H4M9: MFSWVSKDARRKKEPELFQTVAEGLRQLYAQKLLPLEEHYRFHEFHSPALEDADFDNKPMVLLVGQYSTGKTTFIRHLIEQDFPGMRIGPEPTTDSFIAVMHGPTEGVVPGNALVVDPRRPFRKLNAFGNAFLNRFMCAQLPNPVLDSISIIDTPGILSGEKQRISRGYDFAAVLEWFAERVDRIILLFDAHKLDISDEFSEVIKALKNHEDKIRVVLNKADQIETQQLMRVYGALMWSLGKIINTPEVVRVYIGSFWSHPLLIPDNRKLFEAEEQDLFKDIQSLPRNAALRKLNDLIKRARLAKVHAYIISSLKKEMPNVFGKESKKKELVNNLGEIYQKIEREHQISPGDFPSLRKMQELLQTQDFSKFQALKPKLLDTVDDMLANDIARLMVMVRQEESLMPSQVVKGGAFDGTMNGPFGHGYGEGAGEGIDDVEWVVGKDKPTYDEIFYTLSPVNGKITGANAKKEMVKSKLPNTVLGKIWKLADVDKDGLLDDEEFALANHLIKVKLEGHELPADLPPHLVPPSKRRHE
UniProt P07203, whole entry: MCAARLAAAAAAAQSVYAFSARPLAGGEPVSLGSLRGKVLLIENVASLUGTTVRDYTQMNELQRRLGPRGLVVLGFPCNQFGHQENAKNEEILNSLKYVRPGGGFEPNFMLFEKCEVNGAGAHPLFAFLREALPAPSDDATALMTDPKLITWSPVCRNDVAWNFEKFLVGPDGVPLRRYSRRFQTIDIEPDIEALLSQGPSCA
UniProt O14979: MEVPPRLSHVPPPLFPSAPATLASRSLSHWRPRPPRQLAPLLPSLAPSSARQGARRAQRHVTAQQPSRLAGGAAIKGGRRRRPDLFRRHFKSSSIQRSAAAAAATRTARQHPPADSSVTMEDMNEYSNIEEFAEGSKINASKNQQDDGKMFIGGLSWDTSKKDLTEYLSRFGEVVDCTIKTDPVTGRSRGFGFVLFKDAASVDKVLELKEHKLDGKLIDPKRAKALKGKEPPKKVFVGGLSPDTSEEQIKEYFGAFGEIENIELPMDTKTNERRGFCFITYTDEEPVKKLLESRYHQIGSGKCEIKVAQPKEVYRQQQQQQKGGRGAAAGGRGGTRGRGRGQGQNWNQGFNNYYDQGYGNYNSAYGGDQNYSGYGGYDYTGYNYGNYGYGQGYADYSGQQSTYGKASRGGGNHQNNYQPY
UniProt Q13043: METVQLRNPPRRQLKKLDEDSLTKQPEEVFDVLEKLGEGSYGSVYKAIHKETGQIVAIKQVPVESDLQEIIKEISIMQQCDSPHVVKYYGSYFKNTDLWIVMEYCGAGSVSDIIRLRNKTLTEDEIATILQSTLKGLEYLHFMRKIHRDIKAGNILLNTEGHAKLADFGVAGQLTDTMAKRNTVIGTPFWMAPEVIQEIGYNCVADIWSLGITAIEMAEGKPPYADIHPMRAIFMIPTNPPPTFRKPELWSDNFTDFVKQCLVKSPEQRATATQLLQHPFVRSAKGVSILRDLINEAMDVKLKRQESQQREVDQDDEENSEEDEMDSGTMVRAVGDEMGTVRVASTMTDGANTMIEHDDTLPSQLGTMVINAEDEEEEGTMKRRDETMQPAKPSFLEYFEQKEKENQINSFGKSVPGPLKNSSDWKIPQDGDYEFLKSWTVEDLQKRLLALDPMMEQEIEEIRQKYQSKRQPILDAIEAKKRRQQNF
UniProt Q6DD87: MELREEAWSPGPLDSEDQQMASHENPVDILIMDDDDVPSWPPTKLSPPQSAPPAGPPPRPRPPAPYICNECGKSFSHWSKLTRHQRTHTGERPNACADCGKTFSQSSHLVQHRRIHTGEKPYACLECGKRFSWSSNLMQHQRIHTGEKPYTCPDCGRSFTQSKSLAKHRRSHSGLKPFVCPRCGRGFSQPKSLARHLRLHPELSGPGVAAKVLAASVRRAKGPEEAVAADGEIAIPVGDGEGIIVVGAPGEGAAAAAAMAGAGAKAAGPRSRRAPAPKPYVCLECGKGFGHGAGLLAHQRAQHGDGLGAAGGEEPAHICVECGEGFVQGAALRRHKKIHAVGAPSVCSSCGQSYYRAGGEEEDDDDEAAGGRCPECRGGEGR
UniProt P25787: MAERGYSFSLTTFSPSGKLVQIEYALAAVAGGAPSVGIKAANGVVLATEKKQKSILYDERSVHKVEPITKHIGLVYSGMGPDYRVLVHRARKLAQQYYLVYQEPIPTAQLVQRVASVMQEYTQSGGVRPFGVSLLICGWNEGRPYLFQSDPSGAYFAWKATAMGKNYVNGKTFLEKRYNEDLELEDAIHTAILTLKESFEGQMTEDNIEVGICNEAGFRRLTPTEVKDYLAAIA
UniProt P53814: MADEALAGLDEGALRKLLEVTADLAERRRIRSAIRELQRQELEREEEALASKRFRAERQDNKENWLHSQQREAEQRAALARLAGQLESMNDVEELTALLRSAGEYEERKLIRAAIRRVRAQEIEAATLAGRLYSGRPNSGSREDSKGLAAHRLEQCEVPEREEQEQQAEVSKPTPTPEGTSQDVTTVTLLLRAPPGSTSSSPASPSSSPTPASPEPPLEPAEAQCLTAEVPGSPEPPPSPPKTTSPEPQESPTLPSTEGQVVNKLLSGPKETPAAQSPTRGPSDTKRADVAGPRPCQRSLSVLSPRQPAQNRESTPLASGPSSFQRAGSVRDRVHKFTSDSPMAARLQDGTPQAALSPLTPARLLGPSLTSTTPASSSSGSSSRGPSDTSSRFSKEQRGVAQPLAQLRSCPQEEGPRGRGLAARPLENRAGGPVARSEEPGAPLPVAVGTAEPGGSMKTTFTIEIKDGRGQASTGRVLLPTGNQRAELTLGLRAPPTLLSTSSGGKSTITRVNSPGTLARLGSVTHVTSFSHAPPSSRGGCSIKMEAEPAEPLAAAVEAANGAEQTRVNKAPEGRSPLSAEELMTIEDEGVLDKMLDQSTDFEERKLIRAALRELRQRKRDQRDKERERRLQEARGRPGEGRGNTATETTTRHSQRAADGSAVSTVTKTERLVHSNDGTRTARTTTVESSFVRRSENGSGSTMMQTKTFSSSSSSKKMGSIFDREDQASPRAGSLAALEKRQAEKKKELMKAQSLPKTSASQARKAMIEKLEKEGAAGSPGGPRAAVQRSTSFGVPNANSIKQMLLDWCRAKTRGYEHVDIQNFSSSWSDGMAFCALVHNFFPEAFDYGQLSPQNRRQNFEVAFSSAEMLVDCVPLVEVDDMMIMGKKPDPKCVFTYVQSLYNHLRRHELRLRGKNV
UniProt Q0VDG4: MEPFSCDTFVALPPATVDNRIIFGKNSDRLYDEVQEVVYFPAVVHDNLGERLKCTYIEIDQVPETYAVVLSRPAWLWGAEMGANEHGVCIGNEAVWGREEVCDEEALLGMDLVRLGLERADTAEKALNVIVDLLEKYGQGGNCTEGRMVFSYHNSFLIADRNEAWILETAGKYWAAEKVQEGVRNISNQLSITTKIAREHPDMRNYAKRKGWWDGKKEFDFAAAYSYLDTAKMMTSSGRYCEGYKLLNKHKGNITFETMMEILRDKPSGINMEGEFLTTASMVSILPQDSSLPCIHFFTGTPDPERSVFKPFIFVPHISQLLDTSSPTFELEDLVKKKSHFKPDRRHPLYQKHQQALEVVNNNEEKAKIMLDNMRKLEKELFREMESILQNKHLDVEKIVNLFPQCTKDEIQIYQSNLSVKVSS
UniProt Q5VWQ0: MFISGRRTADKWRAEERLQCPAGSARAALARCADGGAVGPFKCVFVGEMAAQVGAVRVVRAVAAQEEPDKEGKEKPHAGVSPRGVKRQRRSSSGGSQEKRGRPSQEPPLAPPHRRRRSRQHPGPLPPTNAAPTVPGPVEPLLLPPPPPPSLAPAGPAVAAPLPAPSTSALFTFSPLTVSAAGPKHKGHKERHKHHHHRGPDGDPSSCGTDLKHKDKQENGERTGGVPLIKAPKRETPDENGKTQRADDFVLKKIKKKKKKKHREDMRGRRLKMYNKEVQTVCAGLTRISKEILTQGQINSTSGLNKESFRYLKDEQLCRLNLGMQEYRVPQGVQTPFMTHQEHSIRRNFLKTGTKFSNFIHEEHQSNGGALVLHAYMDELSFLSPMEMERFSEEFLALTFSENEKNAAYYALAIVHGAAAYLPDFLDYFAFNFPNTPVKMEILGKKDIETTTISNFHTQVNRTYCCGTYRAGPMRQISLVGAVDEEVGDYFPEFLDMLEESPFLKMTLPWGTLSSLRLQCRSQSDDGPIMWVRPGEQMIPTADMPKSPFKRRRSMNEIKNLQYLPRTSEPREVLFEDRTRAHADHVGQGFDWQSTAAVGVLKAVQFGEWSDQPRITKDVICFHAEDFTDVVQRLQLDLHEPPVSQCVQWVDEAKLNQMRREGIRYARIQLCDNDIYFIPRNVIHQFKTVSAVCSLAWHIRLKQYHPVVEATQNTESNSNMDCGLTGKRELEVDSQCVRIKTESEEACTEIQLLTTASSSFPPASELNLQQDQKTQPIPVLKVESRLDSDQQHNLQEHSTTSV
UniProt Q9NZM3: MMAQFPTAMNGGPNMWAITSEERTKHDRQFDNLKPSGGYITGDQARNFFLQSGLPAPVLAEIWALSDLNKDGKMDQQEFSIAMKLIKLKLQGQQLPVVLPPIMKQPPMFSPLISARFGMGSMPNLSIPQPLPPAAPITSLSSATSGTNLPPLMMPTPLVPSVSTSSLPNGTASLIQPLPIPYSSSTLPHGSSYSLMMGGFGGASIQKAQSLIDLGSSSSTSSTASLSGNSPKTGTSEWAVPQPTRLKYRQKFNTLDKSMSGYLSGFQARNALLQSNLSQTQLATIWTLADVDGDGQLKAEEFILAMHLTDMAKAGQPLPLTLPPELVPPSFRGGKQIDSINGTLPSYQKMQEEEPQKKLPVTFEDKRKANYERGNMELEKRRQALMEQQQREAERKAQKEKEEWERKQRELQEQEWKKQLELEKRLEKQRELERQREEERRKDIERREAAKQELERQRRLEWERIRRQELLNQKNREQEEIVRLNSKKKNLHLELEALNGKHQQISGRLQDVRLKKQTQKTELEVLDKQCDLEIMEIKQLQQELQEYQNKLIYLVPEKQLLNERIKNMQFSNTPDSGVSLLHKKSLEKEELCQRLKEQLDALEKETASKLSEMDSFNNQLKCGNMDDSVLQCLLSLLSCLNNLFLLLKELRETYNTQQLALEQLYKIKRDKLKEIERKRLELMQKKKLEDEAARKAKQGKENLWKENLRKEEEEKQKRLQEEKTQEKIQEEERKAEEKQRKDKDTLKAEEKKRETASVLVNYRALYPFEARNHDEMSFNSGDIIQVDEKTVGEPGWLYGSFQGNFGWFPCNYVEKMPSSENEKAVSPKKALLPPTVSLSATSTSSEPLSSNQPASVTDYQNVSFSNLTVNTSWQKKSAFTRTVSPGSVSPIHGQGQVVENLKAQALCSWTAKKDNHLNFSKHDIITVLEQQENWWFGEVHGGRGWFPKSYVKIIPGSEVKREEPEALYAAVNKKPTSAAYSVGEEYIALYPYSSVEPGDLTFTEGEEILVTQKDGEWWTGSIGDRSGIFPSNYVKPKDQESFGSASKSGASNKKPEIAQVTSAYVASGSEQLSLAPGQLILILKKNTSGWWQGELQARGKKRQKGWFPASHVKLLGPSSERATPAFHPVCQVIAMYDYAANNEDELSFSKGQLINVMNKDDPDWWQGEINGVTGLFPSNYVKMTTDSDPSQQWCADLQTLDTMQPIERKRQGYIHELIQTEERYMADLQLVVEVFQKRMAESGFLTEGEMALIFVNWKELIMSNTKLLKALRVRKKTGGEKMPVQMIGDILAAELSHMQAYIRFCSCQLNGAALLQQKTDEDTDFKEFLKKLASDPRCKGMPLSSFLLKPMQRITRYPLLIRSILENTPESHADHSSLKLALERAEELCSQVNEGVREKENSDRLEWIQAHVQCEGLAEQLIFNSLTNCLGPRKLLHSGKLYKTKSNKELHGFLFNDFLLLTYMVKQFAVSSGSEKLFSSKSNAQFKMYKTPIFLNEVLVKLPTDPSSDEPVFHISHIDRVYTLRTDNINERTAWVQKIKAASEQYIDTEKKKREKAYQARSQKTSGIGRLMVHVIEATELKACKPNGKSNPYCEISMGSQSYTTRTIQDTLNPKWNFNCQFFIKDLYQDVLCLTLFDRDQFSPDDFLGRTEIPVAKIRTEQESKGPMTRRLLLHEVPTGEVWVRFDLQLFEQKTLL

Compound: Nc1nc2c(ncn2[C@@H]2O[C@H](COP(=O)(O)OP(=O)(O)OP(=O)(O)O)[C@@H](O)[C@H]2O)c(=O)[nH]1 [guanosine triphosphate]
Assay: NP40-soluble protein abundance relative to vehicle (solubility fold change) (ratio); higher = more soluble protein in presence of GTP
Conditions: concentration: 4mM
How it was run: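 Each value is a fold change relative to the detergent-processed vehicle, calculated per replicate from vsn-normalised intensities. Jurkat crude lysate received eight concentrations (0.1 to 10 mM) for 10 min at room temperature and 3 min at 37 °C, then was solubilised in 0.8% NP40 with benzonase (60 min, 4 °C). The ultracentrifuged supernatant was TMT-labelled and run by LC-MS/MS in three independent experiments.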

Target	NP40-soluble protein abundance
A0A087WWC6|P01848 and related entries (UniProt Q6P4I7+P01848)	0.926 ± 0.12
A0A087WTJ2|Q8WWP7 (UniProt Q8WWP7)	0.947 ± 0.053
A0A024R571|Q9H4M9 (UniProt Q9H4M9)	0.913 ± 0.046
A0A087WWF6|F8W8R3 and related entries (UniProt P49005)	0.969 ± 0.058
A0A087WUQ6|P07203 (UniProt P07203)	0.892 ± 0.092
A0A087WW40|Q9Y371 and related entries (UniProt Q9Y371)	0.875 ± 0.11
A0A087WV52|Q9NP92 (UniProt Q9NP92)	1.59 ± 0.62
A0A087WUK2|O14979-3|O14979 and related entries (UniProt O14979)	1.02 ± 0.11
A0A087WVN8|Q13043 (UniProt Q13043)	0.882 ± 0.068
A0A087WWS1|Q96FV9 (UniProt Q96FV9)	2.08 ± 0.62
A0A024R4E5 (UniProt Q00341)	0.923 ± 0.031
A0A087WVS8|Q70IA6 and related entries (UniProt Q70IA6)	0.991 ± 0.048
A0A087WTU9|A0A087WZY3|Q8TCU4 and related entries (UniProt Q8TCU4)	1.06 ± 0.083
A0A087WUD1|Q6DD87 (UniProt Q6DD87)	0.962 ± 0.037
A0A024RA52|P25787 (UniProt P25787)	1.13 ± 0.14
A0A087WVP4|A0A087X1R1|P53814 and related entries (UniProt P53814)	1.15 ± 0.063
A0A087WW84|E9PP15 and related entries (UniProt Q14114)	0.919 ± 0.015
A0A087WV73|P46087 and related entries (UniProt P46087)	1.29 ± 0.055

Target	NP40-soluble protein abundance
A0A024R644|O75503 (UniProt O75503)	0.897 ± 0.051
A0A087WU53|Q9H0U3 (UniProt Q9H0U3)	0.963 ± 0.073
A0A087WUD7|Q8WU76 and related entries (UniProt Q8WU76)	1.11 ± 0.16
A0A075B7C0|A0A0C4DGQ5|K7EIV0 and related entries (UniProt P04632)	0.875 ± 0.11
A0A087WTA1|A0A0A0MR20|E9PDN6 and related entries (UniProt Q9C0A0)	1.2 ± 0.068
A0A075B7F8|A8CG34 (UniProt A8CG34)	1.22 ± 0.056
A0A075B716|H0YN88 and related entries (UniProt P08708)	0.939 ± 0.32
A0A087WW14|Q0VDG4 and related entries (UniProt Q0VDG4)	0.954 ± 0.031
A0A087WUB9|Q8WYA6 (UniProt Q8WYA6)	1.06 ± 0.025
A0A087WU02|F8VPA6 and related entries (UniProt Q96RQ1)	0.874 ± 0.074
A0A024RCR6|A0A0G2JK23|P46379 and related entries (UniProt P46379)	0.921 ± 0.097
A0A087WWP8|A0A0C4DGT8|Q5VWQ0 (UniProt Q5VWQ0)	1.36 ± 0.17
A0A087WVF7|Q9NZM3 and related entries (UniProt Q9NZM3)	0.926 ± 0.094
A0A087WWM0|O43617 and related entries (UniProt O43617)	0.925 ± 0.14
A0A075B6F9|M0R3B2 and related entries (UniProt Q9Y314)	0.9 ± 0.06
A0A024R216|Q9Y3E1 (UniProt Q9Y3E1)	0.991 ± 0.14
A0A087WTX2|Q92504 and related entries (UniProt Q92504)	0.996 ± 0.018
A0A087WUC6|E9PI68 and related entries (UniProt Q15005)	0.858 ± 0.041

Same assay, conditions: concentration: 6mM

Target	NP40-soluble protein abundance
A0A087WWC6|P01848 and related entries (UniProt Q6P4I7+P01848)	0.994 ± 0.14
A0A087WTJ2|Q8WWP7 (UniProt Q8WWP7)	0.911 ± 0.025
A0A024R571|Q9H4M9 (UniProt Q9H4M9)	0.912 ± 0.027
A0A087WWF6|F8W8R3 and related entries (UniProt P49005)	0.937 ± 0.064
A0A087WUQ6|P07203 (UniProt P07203)	0.867 ± 0.12
A0A087WW40|Q9Y371 and related entries (UniProt Q9Y371)	0.882 ± 0.096
A0A087WV52|Q9NP92 (UniProt Q9NP92)	1.55 ± 0.58
A0A087WUK2|O14979-3|O14979 and related entries (UniProt O14979)	1.01 ± 0.062
A0A087WVN8|Q13043 (UniProt Q13043)	0.891 ± 0.069
A0A087WWS1|Q96FV9 (UniProt Q96FV9)	2.26 ± 0.76
A0A024R4E5 (UniProt Q00341)	0.928 ± 0.017
A0A087WVS8|Q70IA6 and related entries (UniProt Q70IA6)	0.974 ± 0.022
A0A087WTU9|A0A087WZY3|Q8TCU4 and related entries (UniProt Q8TCU4)	1.04 ± 0.064
A0A087WUD1|Q6DD87 (UniProt Q6DD87)	0.947 ± 0.029
A0A024RA52|P25787 (UniProt P25787)	1.05 ± 0.15
A0A087WVP4|A0A087X1R1|P53814 and related entries (UniProt P53814)	1.15 ± 0.16
A0A087WW84|E9PP15 and related entries (UniProt Q14114)	0.994 ± 0.01
A0A087WV73|P46087 and related entries (UniProt P46087)	1.39 ± 0.073

Target	NP40-soluble protein abundance
A0A024R644|O75503 (UniProt O75503)	0.93 ± 0.041
A0A087WU53|Q9H0U3 (UniProt Q9H0U3)	0.941 ± 0.088
A0A087WUD7|Q8WU76 and related entries (UniProt Q8WU76)	1.09 ± 0.2
A0A075B7C0|A0A0C4DGQ5|K7EIV0 and related entries (UniProt P04632)	0.882 ± 0.043
A0A087WTA1|A0A0A0MR20|E9PDN6 and related entries (UniProt Q9C0A0)	0.835 ± 0.023
A0A075B7F8|A8CG34 (UniProt A8CG34)	1.24 ± 0.18
A0A075B716|H0YN88 and related entries (UniProt P08708)	0.866 ± 0.33
A0A087WW14|Q0VDG4 and related entries (UniProt Q0VDG4)	0.935 ± 0.062
A0A087WUB9|Q8WYA6 (UniProt Q8WYA6)	1.06 ± 0.021
A0A087WU02|F8VPA6 and related entries (UniProt Q96RQ1)	0.886 ± 0.07
A0A024RCR6|A0A0G2JK23|P46379 and related entries (UniProt P46379)	0.935 ± 0.061
A0A087WWP8|A0A0C4DGT8|Q5VWQ0 (UniProt Q5VWQ0)	1.45 ± 0.2
A0A087WVF7|Q9NZM3 and related entries (UniProt Q9NZM3)	0.937 ± 0.077
A0A087WWM0|O43617 and related entries (UniProt O43617)	0.946 ± 0.087
A0A075B6F9|M0R3B2 and related entries (UniProt Q9Y314)	0.944 ± 0.074
A0A024R216|Q9Y3E1 (UniProt Q9Y3E1)	1.04 ± 0.13
A0A087WTX2|Q92504 and related entries (UniProt Q92504)	0.991 ± 0.063
A0A087WUC6|E9PI68 and related entries (UniProt Q15005)	0.881 ± 0.045
